PubChem BioAssay AID1053208 – Peter MacCallum Cancer Centre, 2014
Assay: 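Genes whose silencing cuts survival of bone tumour cells only with doxorubicin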 (primary screen). Cells: mouse osteosarcoma cells, early-passage culture from an engineered mouse model of fibroblastic bone tumour. Reagents: siRNA pool against mouse genes, 40 nM. Timing: about 120 h (48 h before drug, then 72 h with drug). Conditions: doxorubicin 100 nM for 72 h, roughly 30-40% inhibitory dose. Read-out: 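Viability read as ATP luminescence after 72 h of 100 nM doxorubicin or none, duplicate wells averaged, scaled to non-targeting siRNA, then expressed as robust z-scores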. Scale: viability z-score with doxorubicin: higher = more viable cells under doxorubicin; viability z-score without drug: higher = more viable cells with knock-down alone. Active means: 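a pool counts as active when its viability z-score with doxorubicin is -2 or below and its z-score without drug lies between -2 and 2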.
The deposit covers about 17,000 reagents; this is a part drawn at random. 788 of them (4.7%) count as active. 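Calls rest on z-score classes alone; an extra cut-off of viability at most 70% of control was not applied to them.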 The numbers tell different reagents against one gene apart. Further read-outs or replicates are left out here.

no.	gene	reagent	combined z-score class	viability z-score with doxorubicin	viability z-score without drug	Call
1	Ppp1r1c	1	no change with or without drug	0.67	-1.69	inactive
2	Cox7a2	1	no change with or without drug	-0.9	0.51	inactive
3	Rem1	1	no change with or without drug	-0.45	0.17	inactive
4	Phxr1	1	no change with or without drug	-0.56	0.51	inactive
5	Clca4a	1	low cell count without drug only	-0.9	-3.2	inactive
6	Grsf1	1	no change with or without drug	-0.11	0.51	inactive
7	Pitrm1	1	no change with or without drug	-0.45	0	inactive
8	Plb1	1	no change with or without drug	0.79	1.18	inactive
9	Dusp14	1	no change with or without drug	0.79	0.84	inactive
10	9930022D16Rik	1	no change with or without drug	0.11	0.17	inactive
11	Grin2d	1	no change with or without drug	-0.67	-0.51	inactive
12	Tmem53	1	no change with or without drug	-0.45	0.34	inactive
13	H2-Ab1	1	low cell count with doxorubicin only	-2.02	-1.18	active
14	H2-Ab1	2	no change with or without drug	0.9	1.52	inactive
15	Ripply3	1	no change with or without drug	-0.9	0.84	inactive
16	Rpl3l	1	no change with or without drug	0.11	0.67	inactive
17	Caskin2	1	no change with or without drug	-0.67	0.51	inactive
18	Cst9	1	no change with or without drug	0.56	0.67	inactive
19	Agpat4	1	no change with or without drug	-0.45	-1.18	inactive
20	Pwp2	1	no change with or without drug	-1.35	-1.69	inactive
21	Slc6a20b	1	no change with or without drug	1.35	1.18	inactive
22	Nxf7	1	no change with or without drug	0.67	0.17	inactive
23	Nrip1	1	no change with or without drug	0.34	-0.51	inactive
24	Aars1	1	high cell count without drug only	1.57	2.19	inactive
25	Eef2k	1	no change with or without drug	-0.22	-1.52	inactive
26	Mcptl	1	no change with or without drug	-1.35	-1.18	inactive
27	Vmn1r193	1	no change with or without drug	-1.57	-0.34	inactive
28	Oxct2b	1	no change with or without drug	-1.35	-0.84	inactive
29	Slc25a5	1	low cell count with doxorubicin only	-2.14	-1.18	active
30	Hs6st2	1	no change with or without drug	1.91	1.18	inactive
31	Hacd4	1	no change with or without drug	-0.9	-0.51	inactive
32	Ids	1	low cell count with and without drug	-2.47	-2.19	inactive
33	Tmem208	1	no change with or without drug	0.56	0.17	inactive
34	Galp	1	no change with or without drug	0	-0.17	inactive
